Literature values, collected in patent US20260007687A1, “A[…] EMULSION INJECTION AND METHOD FOR PREPARING SAME” (JIANGSU NHWA PHARMACEUTICAL CO., LTD, priority 2022, published 2026).

Details: background statement; cited from earlier work

## CC(=O)[C@H]1CC[C@H]2[C@@H]3CC[C@H]4C[C@H](O)CC[C@]4(C)[C@H]3C(=O)C[C@]12C [alphaxalone]
  potency of alphaxalone relative to propofol: 5 times
